Measured values as given in patent US20210087226 (published 2021).

Assay: general procedure: Fmoc solid-phase peptide synthesis; Rink Amide MBHA resin; HOBt/DIC
Conditions: whole synthesis, 220 nm, acetate

Substance: vasopressin
- final HPLC purity (run 1): 99.56%
- final HPLC purity (run 2): 99.62%
- final HPLC purity (run 3): 99.52%
- crude HPLC purity (run 1): 73.63%
- crude HPLC purity (run 2): 75.23%
- crude HPLC purity (run 3): 75.66%
